Assay results: paper doi:10.1101/2023.06.10.544440

Target: zebrafish eIF4E1c (49-230) (zebrafish)
Assay: pull-down

binding: binds
Binder: PHRYTKEELLDIKELPHSKQRPSCLSEKYDSDGVWDP (domain or fragment, UniProt Q9NRA8 27-63) [eIF4E-binding motif of human eIF4ENIF1 (27-63)]

No constants are given. Whether binding was seen depends on the method and setting. In cells and extracts the contact can be indirect. Binding calls can cover weak binding; strength is not graded here.
